In this test the target is GST-tagged E6AP (ubiquitin-protein ligase E6-associated protein) (UniProt Q05086). The test is described as follows: affinity purification with mass spectrometry; purified GST-E6AP incubated with 1 mg whole cell extract (RIPA) of HL60 cells treated with 1.0 uM ATRA for 0, 24 and 48 h, NETN buffer; bands cut from colloidal coomassie gel, trypsin, MALDI-TOF/TOF; only the target purified.

By UniProt entry, the sequences of proteins in these tests, tags left out.
UniProt Q05086: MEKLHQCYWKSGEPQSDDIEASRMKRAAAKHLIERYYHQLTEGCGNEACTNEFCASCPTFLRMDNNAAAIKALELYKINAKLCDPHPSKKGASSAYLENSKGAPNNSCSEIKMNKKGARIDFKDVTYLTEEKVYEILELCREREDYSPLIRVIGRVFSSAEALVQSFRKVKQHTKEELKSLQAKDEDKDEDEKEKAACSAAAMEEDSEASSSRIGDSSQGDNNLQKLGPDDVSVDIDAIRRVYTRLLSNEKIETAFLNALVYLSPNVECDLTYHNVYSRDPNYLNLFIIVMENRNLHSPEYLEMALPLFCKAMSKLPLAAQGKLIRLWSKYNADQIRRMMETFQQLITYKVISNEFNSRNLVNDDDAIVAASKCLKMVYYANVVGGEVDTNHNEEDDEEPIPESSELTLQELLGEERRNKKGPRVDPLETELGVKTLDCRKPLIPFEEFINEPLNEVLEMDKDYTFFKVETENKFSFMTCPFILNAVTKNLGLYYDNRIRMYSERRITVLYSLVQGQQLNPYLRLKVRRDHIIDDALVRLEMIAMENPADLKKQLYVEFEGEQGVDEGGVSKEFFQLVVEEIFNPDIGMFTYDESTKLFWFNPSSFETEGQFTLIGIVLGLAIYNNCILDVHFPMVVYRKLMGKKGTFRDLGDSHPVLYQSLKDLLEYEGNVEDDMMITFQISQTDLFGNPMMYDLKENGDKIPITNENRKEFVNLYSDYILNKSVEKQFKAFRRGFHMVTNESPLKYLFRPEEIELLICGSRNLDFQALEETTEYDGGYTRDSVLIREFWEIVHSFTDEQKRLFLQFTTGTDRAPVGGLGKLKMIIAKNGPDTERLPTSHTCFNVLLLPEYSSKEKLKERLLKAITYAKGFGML

Results are given in words; binding and its absence hold for the method and conditions named. In cells and extracts the contact can be indirect. Here binding means that the protein was enriched with, or labelled near, the bait; the list need not be complete.

B1: MAX-binding protein MNT, endogenous in myeloid cells (protein, UniProt Q99583 1-582)
chain: MSIETLLEAARFLEWQAQQQQRAREEQERLRLEQEREQEQKKANSLARLAHTLPVEEPRMEAPPLPLSPPAPPPAPPPPLATPAPLTVIPIPVVTNSPQPLPPPPPLPAAAQPLPLAPRQPALVGAPGLSIKEPAPLPSRPQVPTPAPLLPDSKATIPPNGSPKPLQPLPTPVLTIAPHPGVQPQLAPQQPPPPTLGTLKLAPAEEVKSSEQKKRPGGIGTREVHNKLEKNRRAHLKECFETLKRNIPNVDDKKTSNLSVLRTALRYIQSLKRKEKEYEHEMERLAREKIATQQRLAELKHELSQWMDVLEIDRVLRQTGQPEDDQASTSTASEGEDNIDEDMEEDRAGLGPPKLSHRPQPELLKSTLPPPSTTPAPLPPHPHPHPHSVALPPAHLPVQQQQPQQKTPLPAPPPPPAAPAQTLVPAPAHLVATAGGGSTVIAHTATTHASVIQTVNHVLQGPGGKHIAHIAPSAPSPAVQLAPATPPIGHITVHPATLNHVAHLGSQLPLYPQPVAVSHIAHTLSHQQVNGTAGLGPPATVMAKPAVGAQVVHHPQLVGQTVLNPVTMVTMPSFPVSTLKLA
On to B1, for which the binding entry is on record as “binds”.

Values taken from publication PMC4884944.
